{"source": "paper PMC10547647", "binders": {"B1": {"name": "Cell division cycle 25A (CDC25A), endogenous (protein, UniProt P30304 1-524)", "chain": "MELGPEPPHRRRLLFACSPPPASQPVVKALFGASAAGGLSPVTNLTVTMDQLQGLGSDYEQPLEVKNNSNLQRMGSSESTDSGFCLDSPGPLDSKENLENPMRRIHSLPQKLLGCSPALKRSHSDSLDHDIFQLIDPDENKENEAFEFKKPVRPVSRGCLHSHGLQEGKDLFTQRQNSAPARMLSSNERDSSEPGNFIPLFTPQSPVTATLSDEDDGFVDLLDGENLKNEEETPSCMASLWTAPLVMRTTNLDNRCKLFDSPSLCSSSTRSVLKRPERSQEESPPGSTKRRKSMSGASPKESTNPEKAHETLHQSLSLASSPKGTIENILDNDPRDLIGDFSKGYLFHTVAGKHQDLKYISPEIMASVLNGKFANLIKEFVIIDCRYPYEYEGGHIKGAVNLHMEEEVEDFLLKKPIVPTDGKRVIVVFHCEFSSERGPRMCRYVRERDRLGNEYPKLHYPELYVLKGGYKEFFMKCQSYCEPPSYRPMHHEDFKEDLKKFRTKSRTWAGEKSKREMYSRLKKL"}}, "biological_target": "T1, Cycle checkpoint kinase 1 (CHK1), endogenous (human (endogenous in BxPC-3)) (UniProt O14757)", "T1 sequence": "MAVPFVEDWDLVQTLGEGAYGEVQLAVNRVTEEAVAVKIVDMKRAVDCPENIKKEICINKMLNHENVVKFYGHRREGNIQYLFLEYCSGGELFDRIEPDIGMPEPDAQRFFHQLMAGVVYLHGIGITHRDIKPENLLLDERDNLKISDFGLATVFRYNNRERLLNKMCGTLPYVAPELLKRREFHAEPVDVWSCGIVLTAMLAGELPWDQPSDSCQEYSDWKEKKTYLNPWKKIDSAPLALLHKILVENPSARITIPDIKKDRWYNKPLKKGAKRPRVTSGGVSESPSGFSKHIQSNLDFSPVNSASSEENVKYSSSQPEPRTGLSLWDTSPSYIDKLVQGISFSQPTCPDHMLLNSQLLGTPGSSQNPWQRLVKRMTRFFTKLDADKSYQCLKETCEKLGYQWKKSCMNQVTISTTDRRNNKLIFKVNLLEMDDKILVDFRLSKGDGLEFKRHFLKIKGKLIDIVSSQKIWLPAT", "experiment": "co-IP; BxPC-3 cells treated with control vectors or Flag-FHL1 vectors; IP by anti-CHK1 or IgG, Western blot", "note": "No constants are given. Whether binding was seen depends on the method and setting. In cells and extracts the contact can be indirect. Some binding calls cover weakened binding; strength is not graded here."}
{"binder": "B1", "values": [{"measurement": "binding", "value": "binds"}]}
